Reference: PubChem BioAssay AID595 (National Center for Advancing Translational Sciences (NCATS), 2007)
The campaign covered roughly 71,000 compounds. About 310 (0.44%) were called active. This list was built around the results that the source calls inconclusive (neither active nor inactive); the mix of calls is not that of the screen. Calls come from the whole dose curve; as a rule, active = well fitted curve in either direction with a large enough effect; inconclusive = small, poorly fitted or top-dose-only effect, or another doubt; inactive = flat fitted curve, though single readings scatter. Where the call is inconclusive, the potency comes from a doubtful curve fit.

tested on: Hsp90 C-terminal peptide / TPR2A (Hop) interaction, human; experiment: qHTS Assay for Disrupters of an Hsp90 Co-Chaperone Interaction; conditions: AlphaScreen TPR2A-His6 binding biotin-Hsp90 C-terminal peptide; activity change, negative = inhibition: at 57 µM (top of the series) unless noted
% is set by controls: 0 for no effect and ±100 for the full control effect; potency is the fitted concentration of half-maximal effect.

| SMILES | activity change, negative = inhibition | Potency |
| --- | --- | --- |
| O=C(Nc1nc2ccc(Cl)cc2s1)c1ccc(Br)o1 | inactive: -1.59% [at 11 µM] |  |
| CCCCOc1ccccc1NC(=O)CC1Nc2ccccc2NC1=O (configuration not stated) | inconclusive: 53.2% [at 11 µM] |  |
| O=C(OC1CCCCC1)c1ccc2c(c1)C1C=CCC1C(C(=O)O)N2 (configuration not stated) |  | inconclusive: 25.1 µM [inhibitor, partial curve] |
| COc1nc(-c2ccc(C)cc2)ccc1-c1noc(-c2cccnc2)n1 | inactive |  |
| Cc1ccc(-c2nc3cc(NC(=O)C(C)C)ccc3o2)cc1 | inconclusive: 44.2% |  |
| CCOc1ccc2nc(N3CCC(C(=O)Nc4nnc(CC)s4)CC3)sc2c1 | inactive |  |
| C[N+](C)(C)CCOC(N)=O | inconclusive: 48.7% [at 26 µM] |  |
| CCN1CCCC1CNC(=O)Cn1cnc2ccc(S(=O)(=O)N3CCC(C)CC3)cc2c1=O (configuration not stated) | inconclusive: 33.4% |  |
| COc1ccc(-c2ccc(SCC(=O)N3CCOCC3)nn2)cc1 | inactive |  |
| Cc1cc2cc(CNC(=O)c3cc4ccccc4o3)ccc2n1C |  | inconclusive: 25.1 µM [inhibitor, single point] |
| Brc1c(CSc2nnc(-c3ccco3)o2)nc2ccccn12 | inconclusive: 51% |  |
| COc1ccc(C2C(C#N)=C(N)Oc3n[nH]c(-c4ccccn4)c32)c(OC)c1OC (configuration not stated) |  | inconclusive: 20 µM [inhibitor, partial curve] |
| CCOC(=O)c1ccc(S(=O)(=O)Nc2ccccc2-c2nnn(CC)n2)cc1 |  | inconclusive: 20 µM [activator, single point] |
| COc1ccc2[nH]c(=O)c(CN(CC3CCCO3)C(=O)Nc3ccc(F)cc3)cc2c1 (configuration not stated) | inactive |  |
| COc1ccc(-c2nc(CS(=O)CC(=O)NCCCN3CC(C)CC(C)C3)c(C)o2)cc1OC (configuration not stated) | inconclusive: 50.9% |  |
| O=C(c1ccco1)N1CCN=C1SCc1ccccc1Cl | inconclusive: 49.9% |  |
| O=c1c2ccccc2sc2c(CO)ccc(NCCN3CCCCC3)c12 | inactive: -3.74% [at 11 µM] |  |
| Cc1cc(Nc2ccc(O)cc2)ccc1N |  | inconclusive: 12.6 µM [inhibitor, partial curve] |
| O=C(CSc1nnc(CN2CCOCC2)n1-c1ccc(Cl)cc1)N1CCc2ccccc21 | inconclusive: 51.7% |  |
| CC(=O)N1CCC2(CC1)CCN(c1ccc(-c3ccccc3)cc1)CC2 |  | inconclusive: 25.1 µM [inhibitor, single point] |
| Nn1c(SCC(=O)N2CCCc3ccccc32)nnc1-c1ccccc1 | inconclusive: 57.3% |  |
| CC1CCN(S(=O)(=O)c2ccc(NC(=O)CSc3ncccc3C(=O)O)cc2)CC1 | inconclusive: 35.5% |  |

An excerpt of these results, with bars between the fields:
SMILES | activity change, negative = inhibition | Potency
COc1ccc(-c2ccc(SCC(=O)N3CCOCC3)nn2)cc1 | inactive | 
O=c1c2ccccc2sc2c(CO)ccc(NCCN3CCCCC3)c12 | inactive: -3.74% [at 11 µM] | 
